No constants are given. Whether binding was seen depends on the method and setting. Binding seen in cells or lysates may run through a third protein. Some entries that bind do so weakly or less than the wild type. For part of these data: Tags and fused reporters may be left off the sequences shown.
How the values were obtained:
[1] = molecular target: c-Fos (endogenous) (human (endogenous in H719 and H460)) (UniProt P01100); assay: co-IP; endogenous proteins, H460 cells, TPA treatment (100 ng/mL, 2 hrs); lysis in 1% NP-40, 150 mM NaCl, 50 mM Tris, 0.05% SDS
[2] = molecular target: c-Fos (endogenous) (human (endogenous in H719 and H460)) (UniProt P01100); assay: co-IP; endogenous proteins, H719 cells without or with TPA (100 ng/mL, 2 hrs); lysis in 1% NP-40, 150 mM NaCl, 50 mM Tris, 0.05% SDS; IP with anti-c-Fos or with anti-KDM2A, Western blotting with anti-KDM2A or anti-c-Fos
CFP-c-Fos = CFP-c-Fos (UniProt P01100); assay: FRET or BRET; FRET by fluorescence lifetime imaging (FLIM); HEK293T cells transfected with pECFP-c-Fos and/or pEYFP-KDM2A, without or with TPA for 2 hrs, fixed with 4% paraformaldehyde; donor CFP-c-Fos

The chains behind the UniProt entries cited, without tags or fusion partners.
UniProt P01100: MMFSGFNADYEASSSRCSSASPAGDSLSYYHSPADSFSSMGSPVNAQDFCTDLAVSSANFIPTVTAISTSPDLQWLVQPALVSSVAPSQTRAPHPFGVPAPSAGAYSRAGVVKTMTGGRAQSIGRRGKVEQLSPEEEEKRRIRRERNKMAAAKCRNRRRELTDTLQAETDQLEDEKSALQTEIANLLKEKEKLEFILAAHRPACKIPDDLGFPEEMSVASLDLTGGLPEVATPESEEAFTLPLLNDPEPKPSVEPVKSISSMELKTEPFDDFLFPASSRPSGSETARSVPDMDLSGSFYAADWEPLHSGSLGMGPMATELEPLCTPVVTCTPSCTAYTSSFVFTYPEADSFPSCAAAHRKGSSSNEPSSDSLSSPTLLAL

Row | binding [1] | binding [2] | binding (CFP-c-Fos) | Binder
1 | binds | binds | – | KDM2A (endogenous) (enzyme, UniProt Q9Y2K7 1-1162) MEPEEERIRYSQRLRGTMRRRYEDDGISDDEIEGKRTFDLEEKLHTNKYNANFVTFMEGKDFNVEYIQRGGLRDPLIFKNSDGLGIKMPDPDFTVNDVKMCVGSRRMVDVMDVNTQKGIEMTMAQWTRYYETPEEEREKLYNVISLEFSHTRLENMVQRPSTVDFIDWVDNMWPRHLKESQTESTNAILEMQYPKVQKYCLMSVRGCYTDFHVDFGGTSVWYHIHQGGKVFWLIPPTAHNLELYENWLLSGKQGDIFLGDRVSDCQRIELKQGYTFVIPSGWIHAVYTPTDTLVFGGNFLHSFNIPMQLKIYNIEDRTRVPNKFRYPFYYEMCWYVLERYVYCITNRSHLTKEFQKESLSMDLELNGLESGNGDEEAVDREPRRLSSRRSVLTSPVANGVNLDYDGLGKTCRSLPSLKKTLAGDSSSDCSRGSHNGQVWDPQCAPRKDRQVHLTHFELEGLRCLVDKLESLPLHKKCVPTGIEDEDALIADVKILLEELANSDPKLALTGVPIVQWPKRDKLKFPTRPKVRVPTIPITKPHTMKPAPRLTPVRPAAASPIVSGARRRRVRCRKCKACVQGECGVCHYCRDMKKFGGPGRMKQSCVLRQCLAPRLPHSVTCSLCGEVDQNEETQDFEKKLMECCICNEIVHPGCLQMDGEGLLNEELPNCWECPKCYQEDSSEKAQKRKMEESDEEAVQAKVLRPLRSCDEPLTPPPHSPTSMLQLIHDPVSPRGMVTRSSPGAGPSDHHSASRDERFKRRQLLRLQATERTMVREKENNPSGKKELSEVEKAKIRGSYLTVTLQRPTKELHGTSIVPKLQAITASSANLRHSPRVLVQHCPARTPQRGDEEGLGGEEEEEEEEEEEDDSAEEGGAARLNGRGSWAQDGDESWMQREVWMSVFRYLSRRELCECMRVCKTWYKWCCDKRLWTKIDLSRCKAIVPQALSGIIKRQPVSLDLSWTNISKKQLTWLVNRLPGLKDLLLAGCSWSAVSALSTSSCPLLRTLDLRWAVGIKDPQIRDLLTPPADKPGQDNRSKLRNMTDFRLAGLDITDATLRLIIRHMPLLSRLDLSHCSHLTDQSSNLLTAVGSSTRYSLTELNMAGCNKLTDQTLIYLRRIANVTLIDLRGCKQITRKACEHFISDLSINSLYCLSDEKLIQKIS
2 | – | – | binds | YFP-KDM2A (enzyme, UniProt Q9Y2K7 1-1162) MEPEEERIRYSQRLRGTMRRRYEDDGISDDEIEGKRTFDLEEKLHTNKYNANFVTFMEGKDFNVEYIQRGGLRDPLIFKNSDGLGIKMPDPDFTVNDVKMCVGSRRMVDVMDVNTQKGIEMTMAQWTRYYETPEEEREKLYNVISLEFSHTRLENMVQRPSTVDFIDWVDNMWPRHLKESQTESTNAILEMQYPKVQKYCLMSVRGCYTDFHVDFGGTSVWYHIHQGGKVFWLIPPTAHNLELYENWLLSGKQGDIFLGDRVSDCQRIELKQGYTFVIPSGWIHAVYTPTDTLVFGGNFLHSFNIPMQLKIYNIEDRTRVPNKFRYPFYYEMCWYVLERYVYCITNRSHLTKEFQKESLSMDLELNGLESGNGDEEAVDREPRRLSSRRSVLTSPVANGVNLDYDGLGKTCRSLPSLKKTLAGDSSSDCSRGSHNGQVWDPQCAPRKDRQVHLTHFELEGLRCLVDKLESLPLHKKCVPTGIEDEDALIADVKILLEELANSDPKLALTGVPIVQWPKRDKLKFPTRPKVRVPTIPITKPHTMKPAPRLTPVRPAAASPIVSGARRRRVRCRKCKACVQGECGVCHYCRDMKKFGGPGRMKQSCVLRQCLAPRLPHSVTCSLCGEVDQNEETQDFEKKLMECCICNEIVHPGCLQMDGEGLLNEELPNCWECPKCYQEDSSEKAQKRKMEESDEEAVQAKVLRPLRSCDEPLTPPPHSPTSMLQLIHDPVSPRGMVTRSSPGAGPSDHHSASRDERFKRRQLLRLQATERTMVREKENNPSGKKELSEVEKAKIRGSYLTVTLQRPTKELHGTSIVPKLQAITASSANLRHSPRVLVQHCPARTPQRGDEEGLGGEEEEEEEEEEEDDSAEEGGAARLNGRGSWAQDGDESWMQREVWMSVFRYLSRRELCECMRVCKTWYKWCCDKRLWTKIDLSRCKAIVPQALSGIIKRQPVSLDLSWTNISKKQLTWLVNRLPGLKDLLLAGCSWSAVSALSTSSCPLLRTLDLRWAVGIKDPQIRDLLTPPADKPGQDNRSKLRNMTDFRLAGLDITDATLRLIIRHMPLLSRLDLSHCSHLTDQSSNLLTAVGSSTRYSLTELNMAGCNKLTDQTLIYLRRIANVTLIDLRGCKQITRKACEHFISDLSINSLYCLSDEKLIQKIS

Source: publication PMC4741484
